In this assay the test system is C57Bl/6J neuropathic mice. The experiment in a line: Intraperitoneal injection, mechanical nociceptive thresholds of neuropathic (cuffed) mice, von Frey filaments. It is filed as in vivo. Conditions: 10 nmoles.

For the compound `CN1CC[C@]23c4c5ccc(O)c4O[C@H]2[C@@H](O)C=C[C@H]3[C@H]1C5` [morphine, reference compound], the “basic mechanical nociceptive thresholds of the contralateral hind legs” value is listed as “do not modify”.

Values taken from patent US20180264088A1, “USE OF CREATINE KINASE AND DERIVED PEPTIDES THEREOF TO RELIEVE PAIN” (CENTRE NATIONAL DE LA RECHERCHE SCIENTIFIQUE, priority 2015, published 2018).
